Measured values: the supplement of paper PMC9015667
Where a name gives a salt, the structure may show the parent alone. The list shows a part of the results. Repeats are few or missing, and single values can be far off.

Experiments:
Test in all cases: reduction in cell viability relative to untreated/vehicle; higher = more growth inhibition
Conditions in all cases: 200 nM; 72 h
M229P = test system: M229P (parental melanoma line)
M229R = test system: M229R (matched melanoma line resistant to BRAF inhibitors)
M238P = test system: M238P (parental melanoma line)
M238R = test system: M238R (matched melanoma line resistant to BRAF inhibitors)
M249P = test system: M249P (parental melanoma line)
M249R = test system: M249R (matched melanoma line resistant to BRAF inhibitors)
UACC62P = test system: UACC62P (parental melanoma line)
UACC62R = test system: UACC62R (matched melanoma line resistant to BRAF inhibitors)

Compound | reduction in cell viability (M229P) | reduction in cell viability (M229R) | reduction in cell viability (M238P) | reduction in cell viability (M238R) | reduction in cell viability (M249P) | reduction in cell viability (M249R) | reduction in cell viability (UACC62P) | reduction in cell viability (UACC62R)
CC(C)(C)NC(=O)[C@H]1CC[C@H]2[C@@H]3CC[C@H]4NC(=O)C=C[C@]4(C)[C@H]3CC[C@]12C [Finasteride] | < 0% | < 0% | < 0% | < 0% | < 0% | < 0% | < 0% | < 0%
Cc1ccc(-n2nc(C(C)(C)C)cc2NC(=O)Nc2ccc(OCCN3CCOCC3)c3ccccc23)cc1 [Doramapimod] | < 0% | < 0% | < 0% | < 0% | < 0% | < 0% | < 0% | < 0%
CN(C)Cc1ccc(-c2nc3cccc4c3n2CCNC4=O)cc1 | < 0% | < 0% | < 0% | < 0% | < 0% | 0.9% | < 0% | < 0%
CN(C)c1ccc2cc(C(=O)N[C@@H](CCCN=C(N)CCl)C(=O)NCc3ccccc3)ccc2c1 | < 0% | < 0% | < 0% | < 0% | < 0% | < 0% | 2.15% | < 0%
CN(C)CCc1c[nH]c2ccc(CS(=O)(=O)N3CCCC3)cc12 [Almotriptan] | < 0% | < 0% | < 0% | < 0% | < 0% | 23.4% | < 0% | < 0%
CC(C)c1nc(CN(C)C(=O)N[C@H](C(=O)N[C@@H](Cc2ccccc2)C[C@H](O)[C@H](Cc2ccccc2)NC(=O)OCc2cncs2)C(C)C)cs1 [Ritonavir] | < 0% | < 0% | < 0% | < 0% | < 0% | < 0% | < 0% | < 0%
COc1ccc(CCN(C)CCCC(C#N)(c2ccc(OC)c(OC)c2)C(C)C)cc1OC (stereo unspecified) [Verapamil] | < 0% | < 0% | < 0% | < 0% | < 0% | < 0% | < 0% | < 0%
CC(C)OC(=O)CCC/C=C\C[C@@H]1[C@@H](/C=C/[C@@H](O)COc2cccc(C(F)(F)F)c2)[C@H](O)C[C@@H]1O [Travoprost] | < 0% | < 0% | < 0% | < 0% | < 0% | < 0% | < 0% | < 0%
Cc1ccc(NC(=O)c2ccc(CN3CCN(C)CC3)cc2)cc1Nc1nc(-c2cccnc2)cs1 [Masitinib] | < 0% | < 0% | < 0% | < 0% | < 0% | < 0% | < 0% | < 0%
COc1cc(N2CCC(N3CCN(C)CC3)CC2)ccc1Nc1ncnc(Nc2ccccc2S(=O)(=O)C(C)C)n1 | < 0% | < 0% | < 0% | < 0% | < 0% | < 0% | < 0% | < 0%
CC[C@@H]([C@H](C)O)n1ncn(-c2ccc(N3CCN(c4ccc(OC[C@@H]5CO[C@@](Cn6cncn6)(c6ccc(F)cc6F)C5)cc4)CC3)cc2)c1=O [Posaconazole] | < 0% | < 0% | 8.4% | 11% | 12.3% | < 0% | 0.25% | 14.6%
Cc1cnc(C(=O)NCCc2ccc(S(=O)(=O)NC(=O)NC3CCCCC3)cc2)cn1 [Glipizide] | < 0% | < 0% | < 0% | < 0% | < 0% | < 0% | 0.58% | < 0%
O=C(CCc1ccc(O)cc1)c1c(O)cc(O)cc1O[C@@H]1O[C@H](CO)[C@@H](O)[C@H](O)[C@H]1O [Phlorizin] | < 0% | < 0% | < 0% | < 0% | < 0% | < 0% | < 0% | < 0%
Cn1cnc([N+](=O)[O-])c1Sc1ncnc2[nH]cnc12 [Azathioprine] | 13.3% | 30.6% | 0.61% | < 0% | < 0% | < 0% | 29.4% | 12.9%
c1ccc(CNc2nc(N3CCOc4ccccc43)nc3c2CCCC3)cc1 | < 0% | < 0% | < 0% | < 0% | < 0% | < 0% | < 0% | < 0%
Nc1ccc(-c2ccc3ncc4ccc(=O)n(-c5cccc(C(F)(F)F)c5)c4c3c2)cn1 [Torin-2] | 91% | 85.3% | 79.1% | 55.8% | 83.6% | 82.5% | 84.8% | 80.4%
Cn1ccc2cc3c(cc21)CCN3C(=O)Nc1cccnc1 | < 0% | < 0% | < 0% | < 0% | < 0% | < 0% | 13.7% | < 0%
CCC(=O)O[C@]1(C(=O)CO)CC[C@H]2[C@@H]3CCC4=CC(=O)CC[C@]4(C)[C@H]3CC[C@@]21C [17 alpha-propionate] | < 0% | < 0% | < 0% | < 0% | < 0% | < 0% | < 0% | < 0%
C[N+]1(C)[C@@H]2C[C@@H](OC(=O)C(O)(c3cccs3)c3cccs3)C[C@H]1[C@@H]1O[C@@H]12 [Tiotropium bromide] | < 0% | < 0% | < 0% | < 0% | < 0% | 11.4% | < 0% | < 0%
CC[C@]1(O)C[C@H]2CN(CCc3c([nH]c4ccccc34)[C@@](C(=O)OC)(c3cc4c(cc3OC)N(C=O)[C@H]3[C@@](O)(C(=O)OC)[C@H](OC(C)=O)[C@]5(CC)C=CCN6CC[C@]43[C@@H]65)C2)C1 [Vincristine sulfate] | 35.9% | 51% | 65.6% | 70.8% | 60.2% | 54.5% | 50.2% | 84.9%
CC(=O)NC[C@H]1CN(c2ccc(N3CCOCC3)c(F)c2)C(=O)O1 [Linezolid] | < 0% | < 0% | < 0% | < 0% | < 0% | < 0% | < 0% | < 0%

Compound | reduction in cell viability (M229P) | reduction in cell viability (M229R) | reduction in cell viability (M238P) | reduction in cell viability (M238R) | reduction in cell viability (M249P) | reduction in cell viability (M249R) | reduction in cell viability (UACC62P) | reduction in cell viability (UACC62R)
CCOc1cc(C(=O)Nc2ccc(Cl)c(-c3nc4ccccc4[nH]3)c2)cc(OCC)c1OCC | < 0% | < 0% | < 0% | < 0% | < 0% | < 0% | 1.58% | < 0%
CCS(=O)(=O)Nc1ccc2c(c1)/C(=C(/Nc1ccc(CN3CCCCC3)cc1)c1ccccc1)C(=O)N2 [Hesperadin] | 41.2% | 91.4% | 68.9% | 89.6% | 19.9% | < 0% | 54.4% | 63%
COC1=CC(c2cc3ccccc3[nH]2)=N/C1=C\c1[nH]c(C)cc1C [Obatoclax] | 64.1% | 76.9% | 74.4% | 67.7% | 67.2% | 75.9% | 40.9% | 58.7%
C[C@@H]1CC(=O)NN=C1c1ccc(NN=C(C#N)C#N)cc1 [Levosimendan] | < 0% | < 0% | < 0% | 0.64% | < 0% | 10.1% | < 0% | < 0%
CNC1CCCN(c2c(F)cc3c(=O)c(C(=O)O)cn(C4CC4)c3c2OC)C1 (stereo unspecified) [Balofloxacin] | < 0% | < 0% | < 0% | < 0% | < 0% | < 0% | 3.89% | < 0%
N.N.O=C([O-])C[O-].[Pt+2] [Nedaplatin] | < 0% | < 0% | < 0% | < 0% | < 0% | < 0% | < 0% | < 0%
N#CC(=C(/N)Sc1ccccc1N)/C(C#N)=C(/N)Sc1ccccc1N | < 0% | < 0% | 5.07% | < 0% | 5.25% | 0.76% | 37.1% | < 0%
O=C1NC(=O)/C(=C/c2ccc3nccc(-c4ccncc4)c3c2)S1 | < 0% | < 0% | 11.6% | < 0% | < 0% | < 0% | < 0% | < 0%
CN(C)c1nc(Cc2ccc(NC(=O)c3ccc(C(F)(F)F)cc3)cc2)nc(N(C)C)c1CC(=O)O | < 0% | < 0% | < 0% | < 0% | < 0% | < 0% | < 0% | < 0%
Cc1cc([C@@H](C)Nc2ccccc2C(=O)O)c2nc(N3CCOCC3)cc(=O)n2c1 | < 0% | < 0% | 0.18% | 18.9% | 5.17% | < 0% | 6.03% | < 0%
Cn1c2cc([S+](C)[O-])sc2c2cnn(Cc3cccc(N)c3)c(=O)c21 (stereo unspecified) | < 0% | < 0% | < 0% | < 0% | < 0% | < 0% | < 0% | < 0%
CNc1nc(Nc2ccc(C(=O)N3CCOCC3)cc2OC)ncc1Cl | < 0% | < 0% | < 0% | < 0% | < 0% | < 0% | < 0% | < 0%
COc1cc(C(=O)NS(=O)(=O)c2ccccc2C)ccc1Cc1cn(C)c2ccc(NC(=O)OC3CCCC3)cc12 [Zafirlukast] | < 0% | < 0% | < 0% | < 0% | < 0% | < 0% | < 0% | < 0%
COc1c(N2CCNC(C)C2)c(F)cc2c(=O)c(C(=O)O)cn(C3CC3)c12 (stereo unspecified) [Gatifloxacin] | < 0% | < 0% | < 0% | < 0% | < 0% | < 0% | < 0% | < 0%
Nc1ccc(S(=O)(=O)Nc2ccccn2)cc1 [Sulfapyridine] | < 0% | < 0% | < 0% | < 0% | < 0% | 15.9% | < 0% | < 0%
COCCCOc1ccnc(C[S+]([O-])c2nc3ccccc3[nH]2)c1C (stereo unspecified) [Rabeprazole] | < 0% | < 0% | < 0% | < 0% | < 0% | < 0% | < 0% | < 0%
C[C@@H](CN1CC(=O)NC(=O)C1)N1CC(=O)NC(=O)C1 [Dexrazoxane hydrochloride] | < 0% | < 0% | < 0% | < 0% | < 0% | < 0% | < 0% | < 0%
CC[C@H]1OC(=O)[C@H](C)C(=O)[C@H](C)[C@@H](O[C@@H]2O[C@H](C)C[C@H](N(C)C)[C@H]2O)[C@](C)(OC)C[C@@H](C)C(=O)[C@H](C)[C@H]2N(CCCCn3cnc(-c4cccnc4)c3)C(=O)O[C@]12C [Telithromycin] | < 0% | < 0% | < 0% | < 0% | < 0% | < 0% | < 0% | < 0%
Cn1cc(/C=C2\C(=O)Nc3cccnc32)c2ccccc21 | < 0% | < 0% | < 0% | < 0% | < 0% | < 0% | < 0% | < 0%
CCC(C)(C)C(=O)O[C@H]1C[C@@H](C)C=C2C=C[C@H](C)[C@H](CC[C@@H]3C[C@@H](O)CC(=O)O3)[C@H]21 [Simvastatin] | < 0% | < 0% | 0.17% | < 0% | < 0% | < 0% | < 0% | < 0%
Clc1ccc(C2(c3ccc(-c4cn[nH]c4)cc3)CCNCC2)cc1 | < 0% | 14.9% | < 0% | 7.3% | < 0% | < 0% | < 0% | < 0%
